From patent US6518339B1, “Aldehyde emission reduction for dibenzylidene sorbitol clarified plastics” (Milliken & Company, priority 2000, dated 2003)

Assay: Organoleptic taste test of plaque extraction water (ASTM STP 434 / STP 758)
Conditions: General Formulation + 2200 ppm MDBS + 500 ppm ADH, eleven judges, extraction water 50° C. five days, first and second trial
Procedure: Organoleptic testing was carried out based on the general guidelines given in ASTM STP 434 and STP 758. Six 3″×2″×0.05″ plaques of both formulations listed in Table III were placed into ajar containing 700 ml of tap water. Glass pipettes were used to separate the plaques and ensure all surface area was exposed to the extraction water. These jars were then placed into an oven and held at 50° C. for five days. The jars were refrigerated for one day and the extraction water was decanted into cups for taste testing. Each of eleven judges were presented with two pairs of cups and asked to evaluate each cup in a pair against the other and report in which water sample they detected the least taste. The pair tasted contained extraction water from plaques containing 2200 ppm MDBS and extraction water from a similar formulation that additionally had been compounded with 500 ppm of adipic dihydrazide (ADH) (EXAMPLE 2, above). When run in accordance with the ASTM procedures, a statistically significant majority of judges is nine.

Question: Which “Number of Judges Selecting Listed Formulations as Having Least Taste” value does the source give for NNC(=O)CCCCC(=O)NN [Example 2, Adipic dihydrazide] here?
Answer: Its value is 11 and 9.

Values joined by “and” are separate entries in the source; they are usually repeats but may differ in a detail not shown here. Equal entries are not always repeated.
